Values quoted from earlier work as cited in patent US9814726B2, “Composition for preventing or treating fatty liver diseases” (LG CHEM, LTD., priority 2014, dated 2017).
At least one structure is not confirmed: it was looked up by name or label, or the drawing left a doubt.

Test system: NASH
Details: phase 3 clinical trial; cited from earlier work

SMILES: CCc1ccc(CCOc2ccc(CC3SC(=O)NC3=O)cc2)nc1 (stereo not shown) [pioglitazone]
- improving effects in treatment of NASH: did not show practical improving effects
